These are yes or no findings as the source states them, for the method shown. Binding can be weak; no strength is given.

The chains behind the UniProt entries cited, without tags or fusion partners. Where a name states a change or a piece, a line headed by the entry shows the natural chain unless it says otherwise.
UniProt P19838: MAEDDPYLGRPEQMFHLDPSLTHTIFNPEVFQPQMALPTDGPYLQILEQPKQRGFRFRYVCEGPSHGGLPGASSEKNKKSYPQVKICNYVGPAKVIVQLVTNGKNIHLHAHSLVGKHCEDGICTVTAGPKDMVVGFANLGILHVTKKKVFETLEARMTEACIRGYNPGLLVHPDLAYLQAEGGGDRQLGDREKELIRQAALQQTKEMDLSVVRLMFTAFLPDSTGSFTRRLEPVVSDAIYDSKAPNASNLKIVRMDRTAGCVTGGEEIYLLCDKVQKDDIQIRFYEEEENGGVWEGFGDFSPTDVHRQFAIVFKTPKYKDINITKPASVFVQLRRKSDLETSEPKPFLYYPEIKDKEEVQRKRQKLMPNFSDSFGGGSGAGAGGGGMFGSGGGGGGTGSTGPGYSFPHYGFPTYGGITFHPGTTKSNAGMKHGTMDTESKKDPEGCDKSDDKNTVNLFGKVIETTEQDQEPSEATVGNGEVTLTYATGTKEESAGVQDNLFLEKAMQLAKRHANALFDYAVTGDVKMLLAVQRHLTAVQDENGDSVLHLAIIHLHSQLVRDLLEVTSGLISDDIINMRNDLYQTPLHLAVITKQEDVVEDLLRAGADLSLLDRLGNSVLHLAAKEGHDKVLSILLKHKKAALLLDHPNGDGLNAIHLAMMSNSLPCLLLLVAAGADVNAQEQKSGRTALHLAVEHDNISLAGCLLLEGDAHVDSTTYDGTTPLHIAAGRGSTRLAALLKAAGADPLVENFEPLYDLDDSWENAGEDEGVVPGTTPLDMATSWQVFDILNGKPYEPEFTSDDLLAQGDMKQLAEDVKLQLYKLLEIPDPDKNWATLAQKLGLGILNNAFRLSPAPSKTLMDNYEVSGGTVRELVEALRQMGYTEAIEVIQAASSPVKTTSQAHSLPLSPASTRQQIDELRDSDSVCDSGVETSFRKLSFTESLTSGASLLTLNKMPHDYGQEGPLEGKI
UniProt Q96P20: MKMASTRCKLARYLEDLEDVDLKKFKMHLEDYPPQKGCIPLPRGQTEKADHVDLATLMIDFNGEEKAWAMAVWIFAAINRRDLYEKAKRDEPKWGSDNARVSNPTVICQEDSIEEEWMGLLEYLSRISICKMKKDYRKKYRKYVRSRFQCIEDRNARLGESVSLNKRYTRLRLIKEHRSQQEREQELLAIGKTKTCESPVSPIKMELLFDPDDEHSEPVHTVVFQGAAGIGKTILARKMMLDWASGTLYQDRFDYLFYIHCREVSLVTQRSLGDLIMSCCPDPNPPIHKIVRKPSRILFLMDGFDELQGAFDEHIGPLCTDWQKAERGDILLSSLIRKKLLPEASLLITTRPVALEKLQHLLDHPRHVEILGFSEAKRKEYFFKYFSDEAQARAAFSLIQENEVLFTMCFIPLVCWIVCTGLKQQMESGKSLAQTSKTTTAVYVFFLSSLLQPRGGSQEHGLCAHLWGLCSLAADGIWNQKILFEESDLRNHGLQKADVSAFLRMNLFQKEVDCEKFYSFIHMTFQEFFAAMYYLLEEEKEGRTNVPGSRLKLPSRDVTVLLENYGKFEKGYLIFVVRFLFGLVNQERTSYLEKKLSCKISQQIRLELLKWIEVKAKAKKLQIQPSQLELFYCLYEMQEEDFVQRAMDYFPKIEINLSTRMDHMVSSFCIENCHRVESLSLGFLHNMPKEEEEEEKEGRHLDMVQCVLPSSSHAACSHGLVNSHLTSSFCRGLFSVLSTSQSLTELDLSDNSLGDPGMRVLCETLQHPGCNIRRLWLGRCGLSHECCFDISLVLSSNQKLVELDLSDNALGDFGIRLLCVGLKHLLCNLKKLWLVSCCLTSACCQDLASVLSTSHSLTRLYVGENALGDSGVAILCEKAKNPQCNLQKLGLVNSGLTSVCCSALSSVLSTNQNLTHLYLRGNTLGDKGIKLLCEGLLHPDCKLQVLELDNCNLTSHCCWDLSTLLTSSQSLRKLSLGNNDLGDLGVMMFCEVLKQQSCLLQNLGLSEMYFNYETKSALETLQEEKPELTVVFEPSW

In this test the target is GST-NF-κB protein (UniProt P19838). The test can be described thus: pull-down.

With “His-NLRP3 protein (from UniProt Q96P20 1-1036)”, the binding entry is reported as “binds”.

Values taken from doi:10.1101/2024.01.12.575466.
